Experimental data published in publication PMC5938705.
These are yes or no findings as the source states them, for the method shown. In cells and extracts the contact can be indirect. Some binding calls cover weakened binding; strength is not graded here.

The chains behind the UniProt entries cited, without tags or fusion partners.
UniProt O96019: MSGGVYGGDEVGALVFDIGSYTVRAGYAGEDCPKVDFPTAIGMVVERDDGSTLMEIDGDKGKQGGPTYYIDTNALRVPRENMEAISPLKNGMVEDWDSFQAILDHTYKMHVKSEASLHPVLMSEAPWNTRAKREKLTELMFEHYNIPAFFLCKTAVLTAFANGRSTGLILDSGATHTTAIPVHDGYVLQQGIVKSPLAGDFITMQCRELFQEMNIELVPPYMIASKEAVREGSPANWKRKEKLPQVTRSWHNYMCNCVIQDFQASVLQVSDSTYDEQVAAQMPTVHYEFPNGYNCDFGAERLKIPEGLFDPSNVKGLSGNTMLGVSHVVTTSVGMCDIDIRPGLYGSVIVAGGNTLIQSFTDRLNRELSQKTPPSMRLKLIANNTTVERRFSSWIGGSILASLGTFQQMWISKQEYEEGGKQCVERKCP
UniProt P46937: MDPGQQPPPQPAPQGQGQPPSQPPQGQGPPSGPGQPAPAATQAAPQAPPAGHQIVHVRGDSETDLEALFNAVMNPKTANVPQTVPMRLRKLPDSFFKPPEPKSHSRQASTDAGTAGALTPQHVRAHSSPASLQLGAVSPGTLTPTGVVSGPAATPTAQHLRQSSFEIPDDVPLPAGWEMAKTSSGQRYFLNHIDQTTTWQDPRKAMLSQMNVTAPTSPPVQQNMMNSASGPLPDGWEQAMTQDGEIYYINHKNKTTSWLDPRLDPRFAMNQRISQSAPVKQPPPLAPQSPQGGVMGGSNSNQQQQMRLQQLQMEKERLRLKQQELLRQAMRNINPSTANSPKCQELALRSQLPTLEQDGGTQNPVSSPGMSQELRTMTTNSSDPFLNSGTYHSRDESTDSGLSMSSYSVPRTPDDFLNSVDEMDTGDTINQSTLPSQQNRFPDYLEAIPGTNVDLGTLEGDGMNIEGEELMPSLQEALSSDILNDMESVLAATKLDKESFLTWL
UniProt Q9GZV5: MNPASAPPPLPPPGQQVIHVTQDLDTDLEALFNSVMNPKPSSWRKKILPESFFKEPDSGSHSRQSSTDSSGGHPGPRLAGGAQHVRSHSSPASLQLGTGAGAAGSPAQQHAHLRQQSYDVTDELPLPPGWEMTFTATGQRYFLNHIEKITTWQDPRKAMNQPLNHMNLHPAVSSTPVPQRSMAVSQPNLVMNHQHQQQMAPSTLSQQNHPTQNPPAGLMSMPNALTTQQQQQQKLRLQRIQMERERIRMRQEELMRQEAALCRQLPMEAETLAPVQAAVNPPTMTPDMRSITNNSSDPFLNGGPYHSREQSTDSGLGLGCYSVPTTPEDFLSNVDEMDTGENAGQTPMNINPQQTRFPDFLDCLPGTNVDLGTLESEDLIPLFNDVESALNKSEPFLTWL

Key:
[1] = target: Actin-like 6A (ACTL6A), endogenous (human (endogenous in U251 and U87MG)) (UniProt O96019); test: co-IP; endogenous proteins; IP with anti-YAP or anti-ACTL6A antibody (or IgG) and Protein A/G agarose from U251 and U87MG lysates in IP buffer, overnight at 4 °C; western blot
[2] = target: Yes-associated protein (YAP), endogenous (human (endogenous in U251 and U87MG)) (UniProt P46937); test: as above
[3] = target: Yes-associated protein (YAP), endogenous (human (endogenous in U251 and U87MG)) (UniProt P46937); test: co-IP; YAP IP (antibody against YAP) from lysates of cells transfected with increasing amounts of Flag-ACTL6A; western blot for β-TrCP; cell line not stated

Row | binding [1] | Substance | further results
1 | binds | transcriptional coactivator with PDZ-binding motif (TAZ), endogenous (from UniProt Q9GZV5 1-400) | –
2 | binds | Yes-associated protein (YAP), endogenous (from UniProt P46937 1-504) | –
3 | – | Actin-like 6A (ACTL6A), endogenous (from UniProt O96019 1-429) | binding [2]: binds
4 | – | ACTL6A-3xFlag (pcDNA3.1-ACTL6A-3xFlag) (from UniProt O96019 1-429) | binding [3]: binds
